PubChem BioAssay AID504808 – Drosophila RNAi Screening Center, 2011
Purpose: 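Genes whose loss lifts activity of an E2F-responsive reporter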 (primary screen). System: Drosophila S2 cells. Knock-down reagent: long dsRNA against Drosophila genes. Measurement: 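Dual luciferase plate measurements; E2F-specific signal taken as firefly over Renilla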. Reading the numbers: E2F firefly: higher = more E2F reporter activity; Renilla normaliser: higher = more normaliser reporter signal. Rule for the call: 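a knock-down counted as active when the firefly/Renilla E2F signal rose above 50%, a threshold chosen arbitrarily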.
The deposit covers about 21,000 reagents; below is an unselected part of those with a known target gene and a result. Of all reagents, 18 (0.084%) were called active. 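Raw counts without plate normalisation, one of two replicates; the ratio scores behind the calls were not deposited.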 A number with no mark means an inactive call. The numbers tell different reagents against one gene apart. Not stated in the record: the amount of reagent, the time to read-out.

CG5704 → E2F firefly, rep 1 = 74681; Renilla normaliser, rep 1 = 3848
CG5376 → E2F firefly, rep 1 = 1.24e5; Renilla normaliser, rep 1 = 6020
Atx-1 (Ataxin 1) → E2F firefly, rep 1 = 1.08e5; Renilla normaliser, rep 1 = 5092
salr (spalt-related) → E2F firefly, rep 1 = 1.42e5; Renilla normaliser, rep 1 = 5243
Rich (RIC1 homolog) → E2F firefly, rep 1 = 69101; Renilla normaliser, rep 1 = 3568
rho-4 (rhomboid-4) #1 → E2F firefly, rep 1 = 7591; Renilla normaliser, rep 1 = 848
rho-4 (rhomboid-4) #2 → E2F firefly, rep 1 = 1.29e5; Renilla normaliser, rep 1 = 6068
Klp98A (Kinesin-like protein at 98A) → E2F firefly, rep 1 = 1.12e5; Renilla normaliser, rep 1 = 6151
CG15308 → E2F firefly, rep 1 = 1.10e5; Renilla normaliser, rep 1 = 5098
GstZ2 (Glutathione S transferase Z2) → E2F firefly, rep 1 = 54290; Renilla normaliser, rep 1 = 3144
bnb (bangles and beads) → E2F firefly, rep 1 = 1.51e5; Renilla normaliser, rep 1 = 4842
Krn (Keren) → E2F firefly, rep 1 = 1.65e5; Renilla normaliser, rep 1 = 8033
Reps (RALBP1 associated Eps domain containing) → E2F firefly, rep 1 = 1.38e5; Renilla normaliser, rep 1 = 5096
CG4829 → E2F firefly, rep 1 = 1.59e5; Renilla normaliser, rep 1 = 6204
CG13623 → E2F firefly, rep 1 = 1.11e5; Renilla normaliser, rep 1 = 5788
BicD (Bicaudal D) → E2F firefly, rep 1 = 88100; Renilla normaliser, rep 1 = 3887

No new results follow: entries from further up.
Krn (Keren) → E2F firefly, rep 1 = 1.65e5; Renilla normaliser, rep 1 = 8033
Reps (RALBP1 associated Eps domain containing) → E2F firefly, rep 1 = 1.38e5; Renilla normaliser, rep 1 = 5096
CG4829 → E2F firefly, rep 1 = 1.59e5; Renilla normaliser, rep 1 = 6204
CG13623 → E2F firefly, rep 1 = 1.11e5; Renilla normaliser, rep 1 = 5788

The list goes on:
CG31562 (retired record) #1 → E2F firefly, rep 1 = 1.18e5; Renilla normaliser, rep 1 = 5610
CG31562 (retired record) #2 → E2F firefly, rep 1 = 1.32e5; Renilla normaliser, rep 1 = 6483
Nf-YC (Nuclear factor Y-box C) → E2F firefly, rep 1 = 57326; Renilla normaliser, rep 1 = 3682
CG11672 → E2F firefly, rep 1 = 1.20e5; Renilla normaliser, rep 1 = 5620
Vti1a (Vesicle transport through interaction with t-SNAREs 1a) → E2F firefly, rep 1 = 81263; Renilla normaliser, rep 1 = 3927
Egfrap (EGFR adaptor protein) #1 → E2F firefly, rep 1 = 86721; Renilla normaliser, rep 1 = 3878
Egfrap (EGFR adaptor protein) #2 → E2F firefly, rep 1 = 81031; Renilla normaliser, rep 1 = 3614
Or56a (Odorant receptor 56a) → E2F firefly, rep 1 = 1.38e5; Renilla normaliser, rep 1 = 5194
Ccp84Ag → E2F firefly, rep 1 = 1.48e5; Renilla normaliser, rep 1 = 7018
VhaPPA1-2 (Vacuolar H[+] ATPase PPA1 subunit 2) → E2F firefly, rep 1 = 1.13e5; Renilla normaliser, rep 1 = 6136
NC2beta (Negative Cofactor 2beta) → E2F firefly, rep 1 = 93795; Renilla normaliser, rep 1 = 201
Pomp → E2F firefly, rep 1 = 67068; Renilla normaliser, rep 1 = 3756
